These results are taken from patent US20170189376A1, “BUTYROYLOXYMETHYL DIETHYL PHOSPHATE COMPOUNDS AND USES THEREOF” (MOR RESEARCH APPLICATIONS LTD., priority 2016, published 2017).

Broadly, the IC50 is the concentration at which inhibition is half-maximal.

Experiment [1] has as its system Hut78 cells. Kind of experiment: cells. It counts as cell-based. The note with it: Homo sapiens.
A further experiment deals with MyLa cells. Kind of experiment: MTT-based viability assay, MyLa cells. The note with it: Homo sapiens, 72 h. (In general: Tetrazolium dyes change colour on reduction, which living cells bring about.)
The subject of experiment [2] is Hut78 cells. Briefly: MTT-based viability assay, Hut78 cells. The note with it: Homo sapiens, HuT78, 72 h.
For experiment [3], the system named is Sezary syndrome Peripheral blood lymphocytes SPBL. Kind of experiment: MTT-based viability assay, Sezary PBL (SPBL). The note with it: Homo sapiens, Lymphocyte, 72 h.
Another experiment concerns NPBL. Briefly: MTT-based viability assay, normal PBL (NPBL). The conditions noted are these: Homo sapiens, 72 h.
Setting [4] is: read-out: IC50 single treatment (HDACI).

Where two headings read alike, the source gives them in different places.

For `O=C(CCCCCCC(=O)Nc1ccccc1)NO` [SAHA, Suberoylanilide hydroxamic acid, reference compound], the IC50 with Hut78 cells [1] (HuT78, 24 h, read-out: IC50 Long exposure) amounted to 2400 ± 80 nM; in the experiment on Hut78 cells [1] (HuT78, read-out: IC50 Short exposure), 41000 ± 1000 nM; in the experiment with MyLa cells it was 4300 ± 180 nM; in the experiment on Hut78 cells [2] it was 700 ± 50 nM; with Hut78 cells [2] (setting [4]) it was 500 nM; in experiment [3], 2960 nM. Also, the IC50 was 2960 ± 740 nM in experiment [3] (setting [4]), 2100 ± 100 nM in the experiment with NPBL and 2840 ± 650 nM with NPBL (setting [4]).
